Among all 140,000 compounds or so, about 4,300 (3.1%) were called active. The shares of active, inactive and inconclusive entries below differ from those in the screen.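 The calls were made as follows: active = readout at or below -70, meaning at least 70% loss of cells showing the perinucleolar compartment, a nuclear body marking cancer cells; inconclusive = readout between -30 and a set limit; inactive = the rest.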
test: High Content Assay for Compounds that inhibit the Assembly of the Perinucleolar Compartment; details: PC3M PTB-GFP, PNC prevalence imaging, 16 h; at 10 µM; stronger effect = lower value;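 also: plate controls were DMSO wells for no effect and camptothecin positive control wells for full effect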
How it was run: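 Compounds are pinned in duplicate onto adhered PC3M cells stably expressing GFP-tagged PTB and incubated 16 h at 37 C. Cells are then fixed, nuclei stained with Hoechst, and PNC-positive cells counted.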

| Structure (SMILES) | activity change (PNC), negative = inhibition |
| --- | --- |
| CCOC(=O)c1c(NC(=O)c2cc(CC(C)C)on2)sc(C(C)=O)c1C | inconclusive: -36.7% |
| CCN1CCCC1CNC(=O)c1csc2c1CCCC2 (centres undefined) | active: -85.4% |
| CC(=O)N(C)C1(c2nnnn2CCOC(=O)Nc2ccc(Cl)cc2)CCCCC1 | inconclusive: -49.8% |
| CCCCNC(=O)c1onc(CSc2cccc(OCC)c2)c1C(=O)O | inconclusive: -31.2% |
| COC(=O)c1cc(C(=O)OC)cc(-n2c(C)cc(C(=O)COC(=O)CNS(=O)(=O)c3ccc(C)cc3)c2C)c1 | inactive: -24.5% |
| COc1ccc(-c2nnc3n(CCc4ccccc4)c(=O)c4ccccc4n23)cc1OC | inactive: 15% |
| CCOC(=O)c1cc(-c2ccc(OC)cc2)nc2c1c(C)nn2CCC#N | inconclusive: -30.5% |
| COC(=O)c1cn(C(C)C(=O)NCc2ccco2)c2ccccc12 (centres undefined) | inconclusive: -48.4% |
| Cc1cc(NCCCN2CCOCC2)n2ncc(-c3ccc(Cl)cc3)c2n1 | inconclusive: -35% |
| O=S(=O)(Nc1cccc2cccnc12)c1ccc(S(=O)(=O)N2CCCC2)cc1 | inactive: 32.2% |
| COc1ccc(-c2nsc3c(N4CCCC4)ncnc23)cc1 | inconclusive: -61.7% |
| COc1ccc(-c2cc(C(=O)Nc3sc4c(c3C#N)CCCC4)c3ccccc3n2)cc1 | inconclusive: -71.3% |
| CCN1CCN(C(=O)CN(CCc2ccccc2)S(C)(=O)=O)CC1 | inconclusive: -50.6% |
| Cc1occc1-c1nnc(SCC(=O)NCc2cccs2)n1CC1CCCO1 (centres undefined) | inconclusive: -67.8% |
| Cc1ccc(S(=O)(=O)/N=C(\c2ccc(F)cc2)n2c(C)nc3ccccc32)cc1 | inactive: -17.6% |
| CC(C)(C)C(=O)NC(=S)Nc1sc2c(c1C#N)CCCCC2 | inactive: 17.6% |
| CCOC(=O)N1CCC(NC(=O)c2ccc3snnc3c2)CC1 | inconclusive: -33.6% |
| Cc1ccc(SCC(=O)Nc2cccc(NC(=O)c3ccco3)c2)cc1 | inactive: 41.1% |
| CCOC(=O)C1CCN(C(=O)CSCc2nc(-c3ccc(OCC)cc3)oc2C)CC1 | inactive: 54.2% |
| O=C(CN1CCN(c2ccccc2)CC1)Nc1nnc(-c2ccccc2)s1 | inactive: -4.42% |

| Structure (SMILES) | activity change (PNC), negative = inhibition |
| --- | --- |
| O=C(CSCCN1C(=O)c2ccccc2C1=O)Nc1ccc2ccccc2c1 | inconclusive: -48.6% |
| O=C(NCC1OCCc2ccccc21)c1ccco1 (centres undefined) | inactive: 17.9% |
| Cc1cc(C)n(-c2ncnc3sc(C)c(C)c23)n1 | inconclusive: -31.6% |
| CC(C)Cc1ccc(C(C)C(=O)Nc2nccs2)cc1 (centres undefined) | inconclusive: -77.4% |
| Cc1ccc2c(c1)-c1c(cnn1CC(=O)N1CCCN(Cc3ccccc3F)C1)CO2 | inconclusive: -34.4% |
| O=C(CC1CCCCC1)NCCOc1ccccc1 | inconclusive: -57.1% |
| CC(C)(CNC(=O)c1sc2cc(F)ccc2c1Cl)N1CCOCC1 | active: -91.8% |
| Cc1cc([N+](=O)[O-])nn1CC(=O)NNC(=S)Nc1ccc(F)cc1 | inactive: -13.7% |
| CC(C)Oc1ccc(Cc2cnc(N)nc2N)cc1 | inconclusive: -72% |
| C/C(=N\NC(=O)c1cc2c(s1)CCC(C)C2)c1ccncc1 (centres undefined) | inconclusive: -48% |
| CCCc1nc(N)c(C#N)c(N)c1C#N | inconclusive: -36.8% |
| CCCN(CCC)C(C(=O)Nc1cccc(OC)c1)c1ccccc1 (centres undefined) | inconclusive: -30% |
| CCCN1CNC(=S)N(CC2CCCO2)C1 (centres undefined) | inactive: 5.29% |
| N#Cc1ccccc1/C=N/Nc1nc(-c2ccccc2)c2cc(Cl)ccc2n1 | inactive: -10.1% |
| COc1ccc(C(=O)NCCN2CCCC2)cc1OC | inconclusive: -58.4% |
| N#Cc1ccc(NC(=O)c2nc(-c3ccccc3)n(-c3ccccc3)n2)cc1 | inconclusive: -58.8% |
| CCCCNc1ccc(C(=O)Nc2cccc(C)n2)cc1[N+](=O)[O-] | inconclusive: -55.1% |
| COC(=O)CCC(=O)c1oc2ccccc2c1NC(=O)CCCN1C(=O)c2ccccc2C1=O | inactive: 0.276% |
| Nc1nc(Cl)cc(N2CCC(c3cc(-c4ccc(Cl)cc4Cl)n[nH]3)CC2)n1 | inconclusive: -46.9% |
| CCOC(=O)C1=C(C)NC(=S)NC1/C=C/c1ccccc1 (centres undefined) | active: -100% |

| Structure (SMILES) | activity change (PNC), negative = inhibition |
| --- | --- |
| Cc1ccc(Cn2cnc3ccccc32)cc1 | inconclusive: -49% |
| CCN(C(=O)c1c(OC)cccc1OC)c1nnc(-c2cccnc2)s1 | inconclusive: -34.2% |
| Cc1ccc(N(CC(=O)N2CCN(c3ccc(F)cc3)CC2)S(=O)(=O)c2c(C)nn(C)c2C)cc1 | inconclusive: -70.7% |
| CC(C)(C)c1ccc(OCC(=O)N/N=C/c2ccsc2)cc1 | inconclusive: -55.4% |
| COc1ccccc1CN1CCSCC1 | inconclusive: -45.7% |
| CCCCOCC(O)CN1CCN(C(C)=O)CC1 (centres undefined) | inconclusive: -32.4% |
| CCN(CC)c1ccc(/C=N/NC(=O)Cc2cccs2)c(O)c1 | inactive: 17.8% |
| O=P(O)(CCCP(=O)(O)CCc1ccccc1)CCc1ccccc1 | inconclusive: -64.5% |
| C=CCN(c1ccc(C(=O)Nc2cc(C)cc(C)c2)cc1)S(C)(=O)=O | inactive: 0% |
| O=C(Nc1cc(-c2nc3ccccc3s2)ccc1Cl)c1ccc2c(c1)OCO2 | inconclusive: -41.2% |
| Cc1ccc(OCCCN2C(=O)C(=O)c3cccc(C)c32)cc1 | inactive: 64.3% |
| CCOC(=O)c1cnc(SC2CC(=O)N(c3ccccc3)C2=O)nc1N (centres undefined) | inconclusive: -30.1% |
| CCOC(=O)c1c(NC(=O)c2ccccc2Br)sc2c1CCc1ccccc1-2 | inactive: 34.1% |
| O=C(COC(=O)Cc1cccc(C(F)(F)F)c1)Nc1ccccc1 | inconclusive: -52.2% |
| COc1cc(/C=C/C(=O)N2CCCC2)cc(OC)c1OC | inconclusive: -32.9% |
| CN1C(=O)Cn2c1nc1ccccc12 | inactive: 23.1% |
| O=C(Cn1nnc(-c2ccc(OCc3ccccc3F)cc2)n1)N1CCOCC1 | active: -102% |
| O=C(CCSCCC(=O)NCc1ccco1)NCc1ccco1 | inactive: 26.8% |
| COc1ccc(Cl)cc1Nc1nc(-c2sc(NC(=O)C(C)(C)C)nc2C)cs1 | inconclusive: -30.1% |

Look-ups from the list:
Entry of Cc1ccc(OCCCN2C(=O)C(=O)c3cccc(C)c32)cc1 under activity change (PNC), negative = inhibition: inactive: 64.3%
Entry of Cc1ccc(N(CC(=O)N2CCN(c3ccc(F)cc3)CC2)S(=O)(=O)c2c(C)nn(C)c2C)cc1 under activity change (PNC), negative = inhibition: inconclusive: -70.7%
Entry of CCOC(=O)c1c(NC(=O)c2ccccc2Br)sc2c1CCc1ccccc1-2 under activity change (PNC), negative = inhibition: inactive: 34.1%
Entry of O=P(O)(CCCP(=O)(O)CCc1ccccc1)CCc1ccccc1 under activity change (PNC), negative = inhibition: inconclusive: -64.5%
Entry of CCN(CC)c1ccc(/C=N/NC(=O)Cc2cccs2)c(O)c1 under activity change (PNC), negative = inhibition: inactive: 17.8%
